Primary screen of a compound library

By UniProt entry, the sequences of proteins in these tests, tags left out.
UniProt P9WPC5, whole entry: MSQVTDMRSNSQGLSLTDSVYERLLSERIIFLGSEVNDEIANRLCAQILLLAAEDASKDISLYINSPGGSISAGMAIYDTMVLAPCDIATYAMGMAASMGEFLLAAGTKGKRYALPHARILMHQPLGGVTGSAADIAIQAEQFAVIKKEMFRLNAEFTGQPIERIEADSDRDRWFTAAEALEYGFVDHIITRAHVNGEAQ
UniProt P9WPC3, whole entry partner: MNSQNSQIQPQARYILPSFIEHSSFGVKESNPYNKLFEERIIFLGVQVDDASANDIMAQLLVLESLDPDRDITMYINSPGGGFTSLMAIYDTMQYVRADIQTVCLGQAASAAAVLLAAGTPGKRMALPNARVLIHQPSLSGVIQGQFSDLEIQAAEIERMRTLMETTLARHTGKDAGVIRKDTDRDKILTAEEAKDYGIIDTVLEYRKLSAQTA
UniProt P9WNZ1, whole entry: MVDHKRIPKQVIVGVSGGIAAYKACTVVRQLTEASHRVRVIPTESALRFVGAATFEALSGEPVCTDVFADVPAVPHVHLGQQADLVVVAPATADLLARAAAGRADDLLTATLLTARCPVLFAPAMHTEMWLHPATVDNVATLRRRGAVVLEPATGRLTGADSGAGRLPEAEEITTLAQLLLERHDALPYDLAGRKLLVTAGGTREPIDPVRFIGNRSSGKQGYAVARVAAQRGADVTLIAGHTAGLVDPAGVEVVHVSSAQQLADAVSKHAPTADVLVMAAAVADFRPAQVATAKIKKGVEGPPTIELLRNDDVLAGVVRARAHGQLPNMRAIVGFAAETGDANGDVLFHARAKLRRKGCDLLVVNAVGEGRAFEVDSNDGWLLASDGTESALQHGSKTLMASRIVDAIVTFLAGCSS

Each number is a percent effect as filed.
The controls that fix the scale are not given in the record; negative values are as filed.
The compounds are a random part of those screened.
A dash means the value is not listed here; it may have been measured.

A: 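Assay of Toxoplasma gondii numbers, read through their beta-galactosidase reporter with a colour substrate. Concentration: 10 µM. The record gives no direction; the compounds picked for IC50 retests had high values, so higher reads as fewer parasites. About 67,000 compounds were tested under these conditions; 0.38% (about 260) showed 50% or more at least once.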
B: 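Protease assay of ClpP1P2, read by the AMC dye that it sets free. Target: ClpP1P2, Mycobacterium tuberculosis (UniProt P9WPC5 and UniProt P9WPC3). Concentration: 50 µM. Higher reads as stronger inhibition, judged from the few compounds that gave an IC50. Most other retested compounds had strongly negative values. Of about 69,000 compounds tested this way, about 10 (0.015%) reached 50% or more in at least one test.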
C: 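Whole-parasite assay of Trypanosoma brucei over 72 hours; the read-out is not stated. Tested at 30 µM. The record gives no direction; compounds that gave an IC50 in retests scored well above the rest, so higher reads as stronger inhibition. Values scatter widely below zero; nearly all retest evidence comes from the higher of the two concentrations used. About 64,000 compounds were tested under these conditions; 1.5% (about 940) showed 50% or more at least once.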
D: 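Enzyme assay of CoaBC with a phosphate dye (Biomol Green) read at 650 nm. Target: Coenzyme A biosynthesis protein CoaBC, Mycobacterium tuberculosis (UniProt P9WNZ1). Concentration: 30 µM. Direction is inferred from only a few compounds that gave an IC50; most scored high, so higher reads as stronger inhibition. Most strong results did not repeat in a second test. Size under these conditions: about 67,000 compounds, about 40 of them at 50% or above in at least one test.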

structure,A,B,C,D
O=S(=O)(N1CCCCC1)N1CCOC2(CCCC2)C1,2.488%,-4.181%,-8.882%,-4.657%
COC(C(=O)N1CCCN(Cc2cscn2)CC1)c1ccccc1 (centres unmarked),-6.21%,22.47%,-34.4%,-3.989%
O=C(NC[C@]12COC[C@H]1CN(Cc1ccncc1)C2)c1ccno1,-,-3.601%,-,1.854%
[H][C@]12CCN(C(=O)c3ccccc3C)C[C@@]1([H])OCCN(c1ncccn1)C2,-26.12%,-,-611.8%,-
CCOCC(=O)NCCCn1ccnc1-c1ccccc1,-6.97%,0.3299%,-6.863%,-0.2421%
CCC(C)(CCO)NC(=O)c1ccon1 (centres unmarked),8.752%,14.91%,-74.21%,-0.4464%
Cc1nnc(CN(Cc2ccc(Cl)c(Cl)c2)C(C)C)o1,-2.304%,-0.4667%,-8.231%,2.479%
OCc1cc2ccccc2nc1NC1CC=CC1,-5.34%,-2.672%,-10.82%,-3.226%
O=C(N1CCOCC1)[C@@]12CCO[C@@H]1CCN(C1CCCCC1)C2,-,-9.642%,-,7.018%
COc1ccc(CN2CC[C@H](O)[C@@H]2Cc2cnn(C)c2)cc1,-,8.701%,-,2.5%
c1ccc(-n2nnnc2CNCc2ccc3c(c2)OCCO3)cc1,-13.65%,-16.49%,-31.31%,2.405%
Cc1cnc2n(c1=O)CC(C(=O)NCc1ccccc1Cl)CS2 (centres unmarked),28.8%,-6.532%,-35.3%,2.29%
Cn1ccnc1CN1CCN(CC(O)c2ccccc2)CC1 (centres unmarked),-5.736%,-24.48%,-,5.627%
Cc1nnc([C@]23COC[C@H]2CN(Cc2nccs2)C3)o1,-,-8.152%,-,-
CC(C)Cc1ncc2c(n1)CN(c1cc(N)nc(N)n1)C2,-26.31%,-4.337%,-13.39%,17.36%
Cc1ccc(OCc2occc2C(=O)N2C[C@@H]3[C@@H](CN(C)C)[C@@H]3C2)cc1,-,-1.058%,-,3.899%
Cn1cc(NS(=O)(=O)c2ccc(C(F)(F)F)cc2)ccc1=O,13.24%,4.521%,-11.16%,5.102%
Cc1ccc2c(c1)CCC2NCc1c(C)nn(CCO)c1C.Cl (centres unmarked),-15.52%,-,-12.76%,-
Cc1noc(C)c1CN1C[C@H](OCC(=O)N(C)C)[C@H]2OCCC[C@H]21,-,-8.818%,-,3.055%
COCc1n[nH]c2c1CN(C(=O)c1ccncc1)C2.O=C(O)C(F)(F)F,-0.4854%,-,-65.72%,-
CNC(=O)N1CCc2cc(C(=O)N(C)C)c(NCC3CC3)nc2CC1,-,3.266%,-,4.405%
CCn1cc2c(n1)C(COC)CN(C(=O)COc1ccccc1C)C2 (centres unmarked),-4.291%,-10.08%,-3.696%,3.475%
CNC(=O)c1cc2c(nc1NCC(C)C)CCN(C)CC2,-,-115%,-,-20.56%
CC(C)[C@@H]1CN(Cc2ccccc2C#N)C[C@H]1N(C)C,1.229%,6.737%,-13.61%,8.173%
Cc1nn(C)c2c(=O)n(C)c(NCC3CCCO3)nc12 (centres unmarked),10.39%,22.88%,-22.48%,16.78%
Clc1ccc(CNc2cnn(CCN3CCOCC3)c2)cc1Cl,-14.18%,-10.63%,6.12%,4.453%
O=C(CC1CNCCO1)N1CCC(c2cc(N3CCCC3)ncn2)CC1 (centres unmarked),1.124%,-9.267%,-10.63%,-13.32%
O=C(NCc1cncc2c1CCN(Cc1cccc(F)c1)C2)C1CC1,-,-15.1%,-,-1.505%
Cc1cccc(-c2ncc(CNC(C)Cc3ncccc3C)cn2)c1 (centres unmarked),-5.733%,9.301%,-134.7%,11.22%
Cc1cccc(C(=O)Nc2c(C(=O)N(C)C)nn(C)c2C)c1,18.52%,1.466%,-19.88%,-7.621%
CNC(=O)C1(c2cnccn2)CCCN1C(=O)c1cccc(C)n1 (centres unmarked),-3.794%,13.97%,-25.48%,-0.7353%
O=C(c1cnoc1)N1CCC[C@]2(C[C@@H](OCc3ccccn3)CO2)C1,-,2.429%,-,7.957%
CC(=O)NC[C@]1(O)CCN(C(=O)c2ccc3c(c2)OCO3)C[C@H]1O,-3.533%,1.54%,-26.03%,8.252%
Cc1cnn(CC2CN(Cc3nnc(-c4ccccc4)o3)CCO2)c1 (centres unmarked),-4.729%,-37.29%,-14.46%,5.236%
Cn1ccnc1CN1CCC2(CC1)COC2.O=C(O)C(F)(F)F,-16.11%,-,8.251%,-
Cn1cnc(S(=O)(=O)N2CCN(CC3CC3)c3ncccc3C2)c1.O=C(O)C(F)(F)F.O=C(O)C(F)(F)F,-1.011%,-,-70.56%,-
Cc1nc(C)n(CC2CCCN(Cc3ccc(F)cc3C#N)C2)n1 (centres unmarked),-3.616%,-8.254%,-1.574%,3.509%
O=C(NCc1cccnc1)N1CCc2ncnc(C3CC3)c2CC1.O=C(O)C(F)(F)F,-10.76%,-,-101.1%,-
Cc1cc(CN(C)C2CCCN(Cc3noc(C4CC4)n3)C2)no1 (centres unmarked),-2.699%,10.16%,-92.86%,4.508%
CCOCC(O)CN1CCN(C(=O)c2cc(C)ccc2F)CC1 (centres unmarked),7.016%,11.17%,-,0.4779%
CC(Cn1cccn1)NCCS(=O)(=O)c1ccc(Cl)cc1 (centres unmarked),-0.2647%,-20.8%,0.8504%,1.225%
CCOc1nnc(CN2CCN(CCOC)C(C)C2)s1 (centres unmarked),9.884%,14.51%,-10.03%,0.4132%
CNC(=O)c1sc(C2CCCC2)nc1C,-64.98%,-8.578%,-9.407%,0.1209%
CC(NC(=O)NCCNc1cnccn1)c1cccs1 (centres unmarked),0.9529%,0.7732%,20%,0.9639%
COc1ccc(F)c(F)c1CN1CCN(CC(C)C)C(=O)C1C (centres unmarked),-13.3%,-0.08844%,-16.55%,0.4914%
O=C(CS(=O)(=O)Cc1cc(Cl)c2c(c1)OCO2)N1CCCCCC1,-2.212%,-37.42%,-17.28%,7.28%
COc1ccc(C(C(=O)O)N2CCC(Cn3cccn3)CC2)c(OC)n1 (centres unmarked),18.37%,7.604%,-8.646%,0.3802%
c1cn(-c2ccc(N3CCC(NC4CC4)CC3)cc2)cn1,0.04374%,-9.688%,-18.25%,1.794%
COc1ccc(CN2CCO[C@H]3[C@H](OCCN4CCCC4)CC[C@@H]32)cc1,-,-19.88%,-,7.028%
O=C(NCc1cnc2n1CCN(Cc1ccsc1)CC2)C1CCC1,-,-9.873%,-,3.524%
COc1ccc(Br)cc1CCC(=O)N1CCC(O)CC1,-8.649%,1.865%,-38.38%,5.034%
Cc1csc(CNc2nc3c(s2)c(C)nn3C)n1,8.115%,-11.27%,-348.8%,12.15%
CN(Cc1cc2cc(F)ccc2[nH]1)C(=O)C1CC(=O)N(C2CCCC2)C1 (centres unmarked),0.7437%,-10.44%,-50.73%,0.1196%
O=C(NCCCN1CCOCC1)c1ccc(-n2ccc3ccccc32)s1,19.43%,11.41%,-4.421%,4.934%
CCc1ccc(CNC(=O)c2ccc(N3CCOC3=O)cc2)s1,-7.923%,8.178%,-31.87%,-58.47%
CN(C)c1ccc(CNC2(c3ccc(F)cc3)CCOCC2)cc1F,1.79%,8.69%,-11.49%,-3.427%
Cc1csc(N2CCN(CCCN3CCCC3=O)CC2)n1,-1.193%,10.03%,-257.8%,-1.86%
CCC(C)n1c(SCC(=O)N2CCOCC2)nc2cc(C)[nH]c2c1=O (centres unmarked),-4.128%,12.8%,-42.87%,-2.785%

Once more, the final 6:

{"structure": "CN(Cc1cc2cc(F)ccc2[nH]1)C(=O)C1CC(=O)N(C2CCCC2)C1", "stereo": "centres unmarked", "A": 0.7437, "B": -10.44, "C": -50.73, "D": 0.1196}
{"structure": "O=C(NCCCN1CCOCC1)c1ccc(-n2ccc3ccccc32)s1", "A": 19.43, "B": 11.41, "C": -4.421, "D": 4.934}
{"structure": "CCc1ccc(CNC(=O)c2ccc(N3CCOC3=O)cc2)s1", "A": -7.923, "B": 8.178, "C": -31.87, "D": -58.47}
{"structure": "CN(C)c1ccc(CNC2(c3ccc(F)cc3)CCOCC2)cc1F", "A": 1.79, "B": 8.69, "C": -11.49, "D": -3.427}
{"structure": "Cc1csc(N2CCN(CCCN3CCCC3=O)CC2)n1", "A": -1.193, "B": 10.03, "C": -257.8, "D": -1.86}
{"structure": "CCC(C)n1c(SCC(=O)N2CCOCC2)nc2cc(C)[nH]c2c1=O", "stereo": "centres unmarked", "A": -4.128, "B": 12.8, "C": -42.87, "D": -2.785}

Source: ChEMBL document CHEMBL3988442, “University of Dundee, Small-Polar-MMV Screening Library” (2021).